39 compounds from the supplement of paper PMC8007513 can be followed below.

This is one part of the list. Many values rest on one well or one pass, so single values are uncertain.

The subject of this assay is Saccharomyces cerevisiae BY4743. The experiment in a line: growth (OD600) with compound + IPBC relative to untreated control; higher = less growth inhibition. The note with it: compound concentration: 133 uM; IPBC concentration: 0.5 ug/ml; 20 h. The protocol: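 NMCCC compounds (133 uM) combined with IPBC (0.5 ug/ml) against Saccharomyces cerevisiae BY4743 in YPD, 96-well plates. Growth was read as OD600 at 20 h and expressed as % of the untreated control. Single pass.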
For `CCc1ccc(CN2C(=O)CN(S(C)(=O)=O)CC2(C)C(=O)NC2CCCC2)cc1` (centres undefined) + CCCCNC(=O)OCC#CI [3-iodo-2-propynyl butylcarbamate (IPBC)], the growth worked out at 103%. Turning to `CCC(=O)Nc1ccc(S(=O)(=O)N2CCN(C)c3ccccc32)cc1` + CCCCNC(=O)OCC#CI [3-iodo-2-propynyl butylcarbamate (IPBC)], the growth is 84.6%. `CCOC(=O)C1CCN(CC1)C(=O)N\C2=C\N(C)C(=O)C3=CC=CC=C23` + CCCCNC(=O)OCC#CI [3-iodo-2-propynyl butylcarbamate (IPBC)]: the growth amounted to 101%. Take `O=C(O)CCc1ccc(-c2ccccc2)n1NC(=O)c1ccc(O)cc1` + CCCCNC(=O)OCC#CI [3-iodo-2-propynyl butylcarbamate (IPBC)]: the growth came to 103%. Take `CCc1ccc(CN(CC(=O)N2CCNCC2)S(=O)(=O)c2cc(C)c(C)cc2C)cc1` + CCCCNC(=O)OCC#CI [3-iodo-2-propynyl butylcarbamate (IPBC)]: the growth stood at 4.08%. For the compound `CCOC(=O)CNC(=O)c1cc(Br)ccc1OCC(C)C` + CCCCNC(=O)OCC#CI [3-iodo-2-propynyl butylcarbamate (IPBC)], the growth worked out at 106%.

Take `COc1ccc(C2N(c3ccc(Cl)cc3)C(=O)C(C)S2(=O)=O)cc1` (centres undefined) + CCCCNC(=O)OCC#CI [3-iodo-2-propynyl butylcarbamate (IPBC)]: the growth amounted to 96.1%. Under `CC(Sc1nc(C(C)C)n(-c2ccccc2)n1)C(=O)N1CCNC1=O` (centres undefined) + CCCCNC(=O)OCC#CI [3-iodo-2-propynyl butylcarbamate (IPBC)] stands 98.7%; under `COc1ccc(Cl)cc1C(=O)NCCc1ccc(-n2cccn2)cc1` + CCCCNC(=O)OCC#CI [3-iodo-2-propynyl butylcarbamate (IPBC)], 84.7%; under `Cc1ccc(CN2C(=O)c3ccccc3C2O)o1` (centres undefined) + CCCCNC(=O)OCC#CI [3-iodo-2-propynyl butylcarbamate (IPBC)], 116%. `CC(C)c1cc(C(=O)N2CCN(c3ccccc3F)CC2)cs1` + CCCCNC(=O)OCC#CI [3-iodo-2-propynyl butylcarbamate (IPBC)]: the growth was 46%. For `Cc1ccc(NC(=O)CN(C)C(C)c2ccc(-n3cncn3)cc2)cc1C` (centres undefined) + CCCCNC(=O)OCC#CI [3-iodo-2-propynyl butylcarbamate (IPBC)], the growth turned out to be 114%. For `Cc1oc(-c2cccs2)nc1COC(=O)c1csc(S(N)(=O)=O)c1` + CCCCNC(=O)OCC#CI [3-iodo-2-propynyl butylcarbamate (IPBC)], the growth came to 109%. `Cc1noc(C)c1CSCC(=O)NC1CCN(Cc2ccccn2)CC1` + CCCCNC(=O)OCC#CI [3-iodo-2-propynyl butylcarbamate (IPBC)]: the growth came out at 95.7%. Consider `CC1=CC=C(CNC(=O)CC\C2=N\[S](=O)(=O)C3=CC=CC=C3N2)O1` + CCCCNC(=O)OCC#CI [3-iodo-2-propynyl butylcarbamate (IPBC)], for which the growth is 109%. Turning to `Cc1cc(C)n(CCNC(=O)C(=O)Nc2ccc3c(c2)nc(C(F)(F)F)n3C)n1` + CCCCNC(=O)OCC#CI [3-iodo-2-propynyl butylcarbamate (IPBC)], the growth was 84.1%. On to `CC(=O)c1c[nH]c(C(=O)OCC(=O)N2CC(=O)Nc3ccccc32)c1` + CCCCNC(=O)OCC#CI [3-iodo-2-propynyl butylcarbamate (IPBC)], for which the growth turned out to be 89.4%.

With `COc1ccc(Cl)cc1NC(=O)CSc1nccn1C1CCCC1` + CCCCNC(=O)OCC#CI [3-iodo-2-propynyl butylcarbamate (IPBC)], the growth is 81.7%. Under `Cc1ccccc1Cn1cc(NS(=O)(=O)c2ccc(Br)s2)cn1` + CCCCNC(=O)OCC#CI [3-iodo-2-propynyl butylcarbamate (IPBC)] stands 107%; under `COc1ccc(-n2cc(C#N)c3cccnc32)cc1` + CCCCNC(=O)OCC#CI [3-iodo-2-propynyl butylcarbamate (IPBC)], 73%; under `CS(=O)(=O)c1ccc(-c2cccc(NC(=O)C3CCCO3)c2)nn1` (centres undefined) + CCCCNC(=O)OCC#CI [3-iodo-2-propynyl butylcarbamate (IPBC)], 100%. For `CC(C)COc1ccccc1C(=O)Nc1ccccc1C(=O)N1CCCC1` + CCCCNC(=O)OCC#CI [3-iodo-2-propynyl butylcarbamate (IPBC)], the growth amounted to 91.7%. Under `CCCC(=O)Nc1ccc(C(=O)CSc2nnc(-c3cccnc3)n2C)cc1` + CCCCNC(=O)OCC#CI [3-iodo-2-propynyl butylcarbamate (IPBC)] stands 98.3%. Then `O=C(CCc1ccc(S(=O)(=O)N2CCCCCC2)cc1)OCC(=O)N1CCNC1=O` + CCCCNC(=O)OCC#CI [3-iodo-2-propynyl butylcarbamate (IPBC)], with 115%. Take `Cl\C1=C(\CCCC1)C(=O)NC2=CC=C3OCOC3=C2` + CCCCNC(=O)OCC#CI [3-iodo-2-propynyl butylcarbamate (IPBC)]: the growth stood at 97.3%. As for `O=C(COC(=O)c1[nH]nc2ccccc12)NC(=O)NC1CCCCC1` + CCCCNC(=O)OCC#CI [3-iodo-2-propynyl butylcarbamate (IPBC)], the growth came to 105%. As for `CCOC(=O)C1Sc2nnc(C(F)(F)F)n2NC1c1ccccc1` (centres undefined) + CCCCNC(=O)OCC#CI [3-iodo-2-propynyl butylcarbamate (IPBC)], the growth was found to be 77.3%. Consider `CCOC(=O)c1cnn2c1nc(O)c1ccccc12` + CCCCNC(=O)OCC#CI [3-iodo-2-propynyl butylcarbamate (IPBC)], for which the growth was found to be 95.5%.

Turning to `CCCN(CCC)S(=O)(=O)c1ccc2c(c1)N(CC(=O)OC)C(=O)CS2` + CCCCNC(=O)OCC#CI [3-iodo-2-propynyl butylcarbamate (IPBC)], the growth came to 104%.

In the case of `CCOC(=O)C1=NOC\2=C1C(=O)N(C(C)C(=O)NC3=CC=CC(=C3C)Cl)C(=N2)\C` (centres undefined) + CCCCNC(=O)OCC#CI [3-iodo-2-propynyl butylcarbamate (IPBC)], the growth was determined as 87.1%.

Consider `CC(=O)c1csc(NC(=O)CCc2ccsc2)n1` + CCCCNC(=O)OCC#CI [3-iodo-2-propynyl butylcarbamate (IPBC)], for which the growth was determined as 96%. Regarding `CN1C(=O)\C=C(CSC2=NN=C(NC3CC3)S2)/N(C)C1=O` + CCCCNC(=O)OCC#CI [3-iodo-2-propynyl butylcarbamate (IPBC)], the growth is 110%.

Turning to `Clc1snnc1CSc1nccn1-c1ccccc1` + CCCCNC(=O)OCC#CI [3-iodo-2-propynyl butylcarbamate (IPBC)], the growth was 80.6%.

As for `COc1cccc(NC(=O)C2(n3cnnn3)CCCCC2)c1` + CCCCNC(=O)OCC#CI [3-iodo-2-propynyl butylcarbamate (IPBC)], the growth is 80.6%. Turning to `CCCn1c(C)c(C)c(-c2nc3ccccc3[nH]2)c1NC(=O)C(C)C` + CCCCNC(=O)OCC#CI [3-iodo-2-propynyl butylcarbamate (IPBC)], the growth was determined as 87%. With `Cc1cnc(NC(=O)CSc2nnc(CN3CCOCC3)n2C)s1` + CCCCNC(=O)OCC#CI [3-iodo-2-propynyl butylcarbamate (IPBC)], the growth is 92.5%. Under `Cc1cccc(Nc2nnc(SCC(=O)c3ccc[nH]3)s2)c1` + CCCCNC(=O)OCC#CI [3-iodo-2-propynyl butylcarbamate (IPBC)] stands 78.3%; under `Fc1ccc(-c2csc(-c3cccs3)n2)cc1` + CCCCNC(=O)OCC#CI [3-iodo-2-propynyl butylcarbamate (IPBC)], 89.9%. Then `CCOC(=O)c1cc(C)n(CC2CCC(C(=O)Nc3ccccc3OCC)CC2)c1C` (centres undefined) + CCCCNC(=O)OCC#CI [3-iodo-2-propynyl butylcarbamate (IPBC)], with 96.4%.
